{
  "sequences": {"note": "The chains behind the UniProt entries cited, without tags or fusion partners.", "UniProt Q9BZS1, whole entry": "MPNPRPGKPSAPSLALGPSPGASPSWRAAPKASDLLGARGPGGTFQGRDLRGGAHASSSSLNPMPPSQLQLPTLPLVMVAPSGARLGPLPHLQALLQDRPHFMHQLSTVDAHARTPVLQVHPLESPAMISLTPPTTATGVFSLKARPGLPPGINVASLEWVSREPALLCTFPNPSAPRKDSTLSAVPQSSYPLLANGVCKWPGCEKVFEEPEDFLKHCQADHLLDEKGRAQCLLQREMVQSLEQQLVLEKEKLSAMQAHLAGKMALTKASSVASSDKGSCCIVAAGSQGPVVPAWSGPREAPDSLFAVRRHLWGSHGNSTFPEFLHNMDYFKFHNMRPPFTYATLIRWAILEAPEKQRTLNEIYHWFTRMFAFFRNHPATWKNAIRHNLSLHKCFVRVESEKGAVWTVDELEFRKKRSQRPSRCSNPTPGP"},
  "source": "patent US20120171701",
  "biological_target": "FOXP3 (Homo sapiens) (UniProt Q9BZS1)",
  "assay": "EMSA",
  "conditions": "Treg nuclear extract; protein in an extract; label: fluorescent dye",
  "note": "Results from cells or extracts need not show a direct contact.",
  "data": [
    {"sequence": "GTATACAGTATGCAAACATAACTCACCATT (double strand) [SATB1 intron 2 FOXP3 binding site EMSA oligo]", "values": [
      {"measurement": "binding result", "value": "binds"}
    ]}
  ]
}
